# Measured values published in patent US20240342156A1, “METHODS FOR TREATING PAIN” (Xenon Pharmaceuticals Inc., priority 2019, published 2024).
# At least one read-out could not be matched to a standard name with certainty.
# Test: Crossover study with pharmacokinetic analysis, single oral dose in healthy male subjects
# Format: in vivo, human
# Details: 20 mg single oral dose
# Text: The pharmacokinetics (PK), safety, and tolerability of single doses of Compound A in healthy right-handed male human subjects were investigated in a randomized, double-blind, placebo-controlled, transcranial magnetic stimulation (TMS) crossover study.
# An objective of the study was to evaluate the safety, tolerability, and pharmacokinetics of single doses of Compound A in healthy male subjects.
# Twenty healthy right-handed male subjects were enrolled and randomized in a blinded fashion to receive a single oral dose of 20 mg Compound A or placebo (1:1 randomization ratio) on Day 1, then were crossed over to receive a single dose of the other treatment on Day 7.
# Subjects were screened within 27 days prior to entering the study on Day 1. For Period 1, subjects were admitted to the study unit and dosed on Day 1, and discharged on Day 2. For Period 2, following a washout of 6 days, the same subjects were again admitted to the study unit and dosed on Day 7, and discharged on Day 8. […]
# The PK parameters for this study were summarized in two ways. Firstly, PK parameters were calculated where possible using the PK samples collected during each 24 h sampling period for Period 1 and Period 2 separately. Secondly, PK parameters were determined using samples beyond the 24 h sampling period (i.e., from Day 7/8 and/or Day 14). […]
structure (smiles),measurement,setting,value
"Cc1cc(N2CCc3cc(F)ccc3C2)cc(C)c1NC(=O)CC(C)(C)C [Compound A, N-[4-(6-fluoro-3,4-dihydro-TH-isoquinolin-2-yl)-2,6-dimethylphenyl]-3,3-dimethylbutanamide]","Vz/F normalized (L/kg), Mean ± SD","fed, Full PK Profile Data Set (N = 16)",16.3 ± 9.06 L/kg
same,difference in Cmax or Tmax with changes in meal composition and timing relative to dose,"high fat or standard meals, 2 h or 0.5 h pre-dose",no clear difference
